Results from the supplement of paper PMC12819154, “High-throughput peptide-centric local stability assay extends protein–ligand identification to membrane proteins, tissues and bacteria” (Nature Structural & Molecular Biology, 2025).
This is one part of the list. Most values lie at the level of the controls, where differences are scatter.

Sequences of proteins named here, by UniProt entry; tags and fusion partners are left off. A change or cut given only in a name is not applied to a line headed by its entry.
UniProt Q9NVA4: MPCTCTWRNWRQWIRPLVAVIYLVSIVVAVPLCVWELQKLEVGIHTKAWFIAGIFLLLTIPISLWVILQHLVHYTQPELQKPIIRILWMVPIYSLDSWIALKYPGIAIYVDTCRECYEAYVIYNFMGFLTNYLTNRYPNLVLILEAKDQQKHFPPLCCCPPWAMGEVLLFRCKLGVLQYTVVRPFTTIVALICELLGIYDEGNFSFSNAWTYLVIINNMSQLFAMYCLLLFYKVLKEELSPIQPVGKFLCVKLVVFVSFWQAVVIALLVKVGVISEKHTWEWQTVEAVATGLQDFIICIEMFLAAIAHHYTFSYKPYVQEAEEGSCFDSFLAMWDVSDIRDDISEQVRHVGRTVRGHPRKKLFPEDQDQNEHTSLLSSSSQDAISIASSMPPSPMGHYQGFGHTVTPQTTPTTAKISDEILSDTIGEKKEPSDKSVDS
UniProt Q9NYM9: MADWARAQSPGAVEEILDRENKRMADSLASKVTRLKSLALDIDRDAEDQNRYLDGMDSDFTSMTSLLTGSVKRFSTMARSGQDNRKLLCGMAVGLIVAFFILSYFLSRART
UniProt Q9NRD5, whole entry: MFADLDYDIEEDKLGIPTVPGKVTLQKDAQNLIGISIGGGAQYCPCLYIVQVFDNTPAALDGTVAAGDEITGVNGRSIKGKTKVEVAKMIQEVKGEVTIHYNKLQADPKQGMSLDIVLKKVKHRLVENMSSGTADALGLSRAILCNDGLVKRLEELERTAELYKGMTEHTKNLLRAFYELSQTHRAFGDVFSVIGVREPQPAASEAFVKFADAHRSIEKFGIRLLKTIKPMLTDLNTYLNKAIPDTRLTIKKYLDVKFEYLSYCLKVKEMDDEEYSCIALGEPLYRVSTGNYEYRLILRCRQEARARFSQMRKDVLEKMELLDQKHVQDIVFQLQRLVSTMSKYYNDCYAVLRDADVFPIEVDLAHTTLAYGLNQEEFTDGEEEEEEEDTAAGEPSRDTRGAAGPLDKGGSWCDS
UniProt Q9NWQ4: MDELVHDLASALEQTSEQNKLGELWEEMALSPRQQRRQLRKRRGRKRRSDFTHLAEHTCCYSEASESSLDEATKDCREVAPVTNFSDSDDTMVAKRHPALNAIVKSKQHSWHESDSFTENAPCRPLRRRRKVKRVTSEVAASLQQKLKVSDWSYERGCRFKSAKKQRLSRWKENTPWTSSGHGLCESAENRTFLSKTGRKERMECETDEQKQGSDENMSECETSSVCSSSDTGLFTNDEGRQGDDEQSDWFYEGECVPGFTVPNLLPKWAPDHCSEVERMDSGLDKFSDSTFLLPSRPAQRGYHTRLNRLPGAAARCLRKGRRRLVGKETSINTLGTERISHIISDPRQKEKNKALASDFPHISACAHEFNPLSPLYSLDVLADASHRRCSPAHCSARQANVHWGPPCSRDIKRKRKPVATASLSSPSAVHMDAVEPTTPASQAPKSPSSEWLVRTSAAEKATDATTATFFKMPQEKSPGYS
UniProt Q9NQT5, whole entry: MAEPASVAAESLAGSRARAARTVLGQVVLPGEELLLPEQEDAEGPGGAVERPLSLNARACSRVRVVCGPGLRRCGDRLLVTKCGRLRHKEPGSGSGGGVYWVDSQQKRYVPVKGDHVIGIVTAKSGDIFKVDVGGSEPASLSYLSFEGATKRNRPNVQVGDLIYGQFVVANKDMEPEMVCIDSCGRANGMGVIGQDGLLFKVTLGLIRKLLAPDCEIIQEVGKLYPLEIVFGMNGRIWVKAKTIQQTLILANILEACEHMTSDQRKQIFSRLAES
UniProt Q9NX63: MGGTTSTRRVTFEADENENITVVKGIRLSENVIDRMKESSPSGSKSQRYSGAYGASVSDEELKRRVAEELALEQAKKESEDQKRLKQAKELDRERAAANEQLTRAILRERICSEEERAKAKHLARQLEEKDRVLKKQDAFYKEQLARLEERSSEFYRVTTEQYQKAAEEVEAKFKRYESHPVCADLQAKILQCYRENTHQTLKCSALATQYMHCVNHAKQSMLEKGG
UniProt Q9NWU1, whole entry: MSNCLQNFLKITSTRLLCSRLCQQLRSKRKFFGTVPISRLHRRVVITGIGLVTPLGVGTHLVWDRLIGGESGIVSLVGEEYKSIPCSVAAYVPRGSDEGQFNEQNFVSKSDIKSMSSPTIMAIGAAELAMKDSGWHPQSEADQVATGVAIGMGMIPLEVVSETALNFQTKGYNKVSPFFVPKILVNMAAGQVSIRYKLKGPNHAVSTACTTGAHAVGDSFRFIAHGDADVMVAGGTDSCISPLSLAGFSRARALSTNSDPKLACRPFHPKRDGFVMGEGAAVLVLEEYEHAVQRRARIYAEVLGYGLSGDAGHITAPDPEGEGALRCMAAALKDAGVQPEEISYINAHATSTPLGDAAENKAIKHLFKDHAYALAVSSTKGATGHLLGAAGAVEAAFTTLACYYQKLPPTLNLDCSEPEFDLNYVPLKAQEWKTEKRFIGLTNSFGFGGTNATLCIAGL
UniProt Q9NVZ3: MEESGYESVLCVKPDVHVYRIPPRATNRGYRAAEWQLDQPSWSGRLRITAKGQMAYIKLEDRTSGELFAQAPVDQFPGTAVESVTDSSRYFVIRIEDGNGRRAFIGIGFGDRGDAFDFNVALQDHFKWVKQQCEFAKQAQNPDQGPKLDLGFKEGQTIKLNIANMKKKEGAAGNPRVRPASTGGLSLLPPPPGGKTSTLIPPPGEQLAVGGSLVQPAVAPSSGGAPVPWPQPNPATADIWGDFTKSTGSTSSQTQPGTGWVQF
UniProt Q9NSG2: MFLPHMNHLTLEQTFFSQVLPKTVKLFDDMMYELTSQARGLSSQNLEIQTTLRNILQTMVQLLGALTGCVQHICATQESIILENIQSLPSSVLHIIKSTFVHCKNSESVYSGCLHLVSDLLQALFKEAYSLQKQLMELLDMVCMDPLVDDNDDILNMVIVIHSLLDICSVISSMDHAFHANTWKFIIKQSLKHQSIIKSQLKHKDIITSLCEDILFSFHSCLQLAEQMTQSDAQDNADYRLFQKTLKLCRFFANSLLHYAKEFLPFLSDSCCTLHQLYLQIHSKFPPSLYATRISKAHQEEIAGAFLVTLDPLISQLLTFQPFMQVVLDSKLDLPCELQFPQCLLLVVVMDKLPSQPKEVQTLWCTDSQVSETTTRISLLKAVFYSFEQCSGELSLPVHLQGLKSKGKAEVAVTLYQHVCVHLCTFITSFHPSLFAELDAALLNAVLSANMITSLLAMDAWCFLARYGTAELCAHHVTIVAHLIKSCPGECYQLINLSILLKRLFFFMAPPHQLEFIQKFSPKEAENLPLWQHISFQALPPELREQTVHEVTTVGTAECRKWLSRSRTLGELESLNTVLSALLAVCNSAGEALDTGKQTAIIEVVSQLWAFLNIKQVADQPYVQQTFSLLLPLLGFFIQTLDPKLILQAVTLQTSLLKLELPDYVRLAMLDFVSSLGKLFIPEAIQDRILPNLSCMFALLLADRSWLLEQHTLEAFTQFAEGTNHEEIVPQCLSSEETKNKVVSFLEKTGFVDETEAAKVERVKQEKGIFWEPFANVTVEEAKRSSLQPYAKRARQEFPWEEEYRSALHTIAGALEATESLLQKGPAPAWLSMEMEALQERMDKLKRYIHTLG
UniProt Q9NTI5: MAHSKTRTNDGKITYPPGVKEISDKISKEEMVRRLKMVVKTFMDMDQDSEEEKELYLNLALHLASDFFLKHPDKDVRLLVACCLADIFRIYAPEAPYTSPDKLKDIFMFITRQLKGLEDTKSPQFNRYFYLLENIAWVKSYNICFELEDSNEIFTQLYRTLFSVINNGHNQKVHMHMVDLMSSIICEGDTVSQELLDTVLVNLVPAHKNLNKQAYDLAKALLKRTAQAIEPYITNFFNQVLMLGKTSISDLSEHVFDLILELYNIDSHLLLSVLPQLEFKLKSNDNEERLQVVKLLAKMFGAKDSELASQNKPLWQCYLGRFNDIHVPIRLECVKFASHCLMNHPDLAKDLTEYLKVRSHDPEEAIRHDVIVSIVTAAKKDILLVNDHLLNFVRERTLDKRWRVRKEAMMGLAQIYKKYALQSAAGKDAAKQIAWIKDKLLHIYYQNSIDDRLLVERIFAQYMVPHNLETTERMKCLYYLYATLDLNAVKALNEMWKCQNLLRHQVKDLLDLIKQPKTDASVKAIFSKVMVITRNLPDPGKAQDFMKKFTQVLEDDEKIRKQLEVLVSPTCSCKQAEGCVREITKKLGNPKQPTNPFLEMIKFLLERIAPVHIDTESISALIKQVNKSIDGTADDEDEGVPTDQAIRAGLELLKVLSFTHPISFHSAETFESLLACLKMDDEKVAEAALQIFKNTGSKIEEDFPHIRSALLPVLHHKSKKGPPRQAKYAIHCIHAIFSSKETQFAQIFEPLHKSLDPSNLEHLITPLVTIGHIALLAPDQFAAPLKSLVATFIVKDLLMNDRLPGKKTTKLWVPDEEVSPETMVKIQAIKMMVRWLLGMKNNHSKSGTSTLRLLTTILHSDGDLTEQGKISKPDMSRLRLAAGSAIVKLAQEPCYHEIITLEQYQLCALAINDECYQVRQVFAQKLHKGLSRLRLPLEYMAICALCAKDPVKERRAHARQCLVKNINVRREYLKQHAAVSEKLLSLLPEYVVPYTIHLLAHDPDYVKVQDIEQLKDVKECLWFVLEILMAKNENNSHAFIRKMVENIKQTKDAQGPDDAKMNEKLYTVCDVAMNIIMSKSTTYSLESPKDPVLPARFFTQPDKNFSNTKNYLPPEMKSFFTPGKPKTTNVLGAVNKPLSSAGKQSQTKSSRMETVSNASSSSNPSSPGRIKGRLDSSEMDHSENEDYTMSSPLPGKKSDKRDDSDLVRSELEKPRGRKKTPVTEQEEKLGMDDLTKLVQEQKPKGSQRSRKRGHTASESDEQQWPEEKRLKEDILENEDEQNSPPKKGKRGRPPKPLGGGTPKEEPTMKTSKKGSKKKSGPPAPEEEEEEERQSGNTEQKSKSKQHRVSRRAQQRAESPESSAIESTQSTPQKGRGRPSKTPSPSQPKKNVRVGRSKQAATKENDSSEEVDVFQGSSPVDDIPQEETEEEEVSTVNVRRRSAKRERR

Compound: CN[C@@H]1C[C@H]2O[C@@](C)([C@@H]1OC)n1c3ccccc3c3c4c(c5c6ccccc6n2c5c31)C(=O)NC4 [staurosporine]
Assay: log2 fold change of tryptic peptide abundance, ligand vs vehicle (limited proteolysis) (log2 ratio); higher = more trypsin-susceptible (destabilized)
Details: ligand concentration: 20 uM; sample: K562 cleared lysate; digestion: 4 min, 22 C (HT-PELSA RT4min, Orbitrap Astral)

Target | log2 fold change
TMEM184C (peptide sequence: ISDEILSDTIGEKKEPSDK, peptide start residue: 416) (UniProt Q9NVA4) | -0.583
BET1L (peptide sequence: AQSPGAVEEILDRENK, peptide start residue: 7) (UniProt Q9NYM9) | -0.559
PICK1 (peptide sequence: AILCNDGLVKR, peptide start residue: 142) (UniProt Q9NRD5) | -0.857
GPATCH2L (peptide sequence: ATDATTATFFK, peptide start residue: 462) (UniProt Q9NWQ4) | -0.326
EXOSC3 (peptide sequence: HKEPGSGSGGGVYWVDSQQK, peptide start residue: 88) (UniProt Q9NQT5) | -0.474
CHCHD3 (peptide sequence: VAEELALEQAK, peptide start residue: 66) (UniProt Q9NX63) | -0.339
OXSM (peptide sequence: VSPFFVPK, peptide start residue: 175) (UniProt Q9NWU1) | 0.204
NECAP2 (peptide sequence: QAQNPDQGPKLDLGFK, peptide start residue: 138) (UniProt Q9NVZ3) | -0.252
C1orf112 (peptide sequence: TGFVDETEAAKVER, peptide start residue: 749) (UniProt Q9NSG2) | -0.133
PDS5B (peptide sequence: ISKPDMSR, peptide start residue: 870) (UniProt Q9NTI5) | 0.538

Two neighbouring records already listed, quoted:
Target | log2 fold change
PICK1 (peptide sequence: AILCNDGLVKR, peptide start residue: 142) (UniProt Q9NRD5) | -0.857
GPATCH2L (peptide sequence: ATDATTATFFK, peptide start residue: 462) (UniProt Q9NWQ4) | -0.326
